This series concerns the target SerRS DD S101D,S241D (Homo sapiens) (UniProt P49591). The series can be described thus: EMSA. To be noted: strongly attenuated relative to WT; EMSA: 20 mM Tris-HCl pH 8.0, 60 mM KCl, 5 mM MgCl2, 0.1 mg/mL BSA, 10 ng/uL poly(dG-dC), 1 mM DTT, 30 min, room temperature; 0.08 pmol labeled DNA; 5% native PAGE; recombinant protein; protein details: C-terminal His6; label: 5'-32P.

Chains of the proteins cited; added tags and fusions are not shown.
UniProt P49591, whole entry S101D/S241D: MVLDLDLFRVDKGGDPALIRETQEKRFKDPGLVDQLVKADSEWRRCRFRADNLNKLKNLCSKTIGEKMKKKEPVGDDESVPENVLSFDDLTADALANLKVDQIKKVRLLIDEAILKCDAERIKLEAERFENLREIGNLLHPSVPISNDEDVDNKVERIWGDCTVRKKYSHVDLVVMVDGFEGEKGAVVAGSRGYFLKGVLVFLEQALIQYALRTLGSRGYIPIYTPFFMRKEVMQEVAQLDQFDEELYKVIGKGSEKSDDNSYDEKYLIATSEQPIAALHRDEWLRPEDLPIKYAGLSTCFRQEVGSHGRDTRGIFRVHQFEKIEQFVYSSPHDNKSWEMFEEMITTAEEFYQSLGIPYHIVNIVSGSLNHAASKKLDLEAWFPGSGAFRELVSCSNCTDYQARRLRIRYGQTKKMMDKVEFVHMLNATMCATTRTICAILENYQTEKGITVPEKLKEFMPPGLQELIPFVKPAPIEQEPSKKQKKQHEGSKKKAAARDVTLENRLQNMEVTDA

The exact form of at least one protein or probe is not confirmed. The comparison behind a weaker result is the experiment's own reference, which may not be listed here.

As for “GGCGGGGCGGAGCCATGCGCCCCCCCC (double strand) [VEGFA promoter SerRS binding site 27 bp]”, the binding result is “binds more weakly”.

(Values after article PMC7755189.)
